Data from publication PMC10733300, “ANKS1A regulates LDL receptor-related protein 1 (LRP1)-mediated cerebrovascular clearance in brain endothelial cells” (Nature Communications, 2023).
These are yes or no findings as the source states them, for the method shown. Binding seen in cells or lysates may run through a third protein. Some results given as binding are weak or reduced against the parent protein; the word gives no strength.

Sequences of proteins named here, by UniProt entry; tags and fusion partners are left off. Residues count along the entry.
UniProt Q91ZX7, residues 20-4545: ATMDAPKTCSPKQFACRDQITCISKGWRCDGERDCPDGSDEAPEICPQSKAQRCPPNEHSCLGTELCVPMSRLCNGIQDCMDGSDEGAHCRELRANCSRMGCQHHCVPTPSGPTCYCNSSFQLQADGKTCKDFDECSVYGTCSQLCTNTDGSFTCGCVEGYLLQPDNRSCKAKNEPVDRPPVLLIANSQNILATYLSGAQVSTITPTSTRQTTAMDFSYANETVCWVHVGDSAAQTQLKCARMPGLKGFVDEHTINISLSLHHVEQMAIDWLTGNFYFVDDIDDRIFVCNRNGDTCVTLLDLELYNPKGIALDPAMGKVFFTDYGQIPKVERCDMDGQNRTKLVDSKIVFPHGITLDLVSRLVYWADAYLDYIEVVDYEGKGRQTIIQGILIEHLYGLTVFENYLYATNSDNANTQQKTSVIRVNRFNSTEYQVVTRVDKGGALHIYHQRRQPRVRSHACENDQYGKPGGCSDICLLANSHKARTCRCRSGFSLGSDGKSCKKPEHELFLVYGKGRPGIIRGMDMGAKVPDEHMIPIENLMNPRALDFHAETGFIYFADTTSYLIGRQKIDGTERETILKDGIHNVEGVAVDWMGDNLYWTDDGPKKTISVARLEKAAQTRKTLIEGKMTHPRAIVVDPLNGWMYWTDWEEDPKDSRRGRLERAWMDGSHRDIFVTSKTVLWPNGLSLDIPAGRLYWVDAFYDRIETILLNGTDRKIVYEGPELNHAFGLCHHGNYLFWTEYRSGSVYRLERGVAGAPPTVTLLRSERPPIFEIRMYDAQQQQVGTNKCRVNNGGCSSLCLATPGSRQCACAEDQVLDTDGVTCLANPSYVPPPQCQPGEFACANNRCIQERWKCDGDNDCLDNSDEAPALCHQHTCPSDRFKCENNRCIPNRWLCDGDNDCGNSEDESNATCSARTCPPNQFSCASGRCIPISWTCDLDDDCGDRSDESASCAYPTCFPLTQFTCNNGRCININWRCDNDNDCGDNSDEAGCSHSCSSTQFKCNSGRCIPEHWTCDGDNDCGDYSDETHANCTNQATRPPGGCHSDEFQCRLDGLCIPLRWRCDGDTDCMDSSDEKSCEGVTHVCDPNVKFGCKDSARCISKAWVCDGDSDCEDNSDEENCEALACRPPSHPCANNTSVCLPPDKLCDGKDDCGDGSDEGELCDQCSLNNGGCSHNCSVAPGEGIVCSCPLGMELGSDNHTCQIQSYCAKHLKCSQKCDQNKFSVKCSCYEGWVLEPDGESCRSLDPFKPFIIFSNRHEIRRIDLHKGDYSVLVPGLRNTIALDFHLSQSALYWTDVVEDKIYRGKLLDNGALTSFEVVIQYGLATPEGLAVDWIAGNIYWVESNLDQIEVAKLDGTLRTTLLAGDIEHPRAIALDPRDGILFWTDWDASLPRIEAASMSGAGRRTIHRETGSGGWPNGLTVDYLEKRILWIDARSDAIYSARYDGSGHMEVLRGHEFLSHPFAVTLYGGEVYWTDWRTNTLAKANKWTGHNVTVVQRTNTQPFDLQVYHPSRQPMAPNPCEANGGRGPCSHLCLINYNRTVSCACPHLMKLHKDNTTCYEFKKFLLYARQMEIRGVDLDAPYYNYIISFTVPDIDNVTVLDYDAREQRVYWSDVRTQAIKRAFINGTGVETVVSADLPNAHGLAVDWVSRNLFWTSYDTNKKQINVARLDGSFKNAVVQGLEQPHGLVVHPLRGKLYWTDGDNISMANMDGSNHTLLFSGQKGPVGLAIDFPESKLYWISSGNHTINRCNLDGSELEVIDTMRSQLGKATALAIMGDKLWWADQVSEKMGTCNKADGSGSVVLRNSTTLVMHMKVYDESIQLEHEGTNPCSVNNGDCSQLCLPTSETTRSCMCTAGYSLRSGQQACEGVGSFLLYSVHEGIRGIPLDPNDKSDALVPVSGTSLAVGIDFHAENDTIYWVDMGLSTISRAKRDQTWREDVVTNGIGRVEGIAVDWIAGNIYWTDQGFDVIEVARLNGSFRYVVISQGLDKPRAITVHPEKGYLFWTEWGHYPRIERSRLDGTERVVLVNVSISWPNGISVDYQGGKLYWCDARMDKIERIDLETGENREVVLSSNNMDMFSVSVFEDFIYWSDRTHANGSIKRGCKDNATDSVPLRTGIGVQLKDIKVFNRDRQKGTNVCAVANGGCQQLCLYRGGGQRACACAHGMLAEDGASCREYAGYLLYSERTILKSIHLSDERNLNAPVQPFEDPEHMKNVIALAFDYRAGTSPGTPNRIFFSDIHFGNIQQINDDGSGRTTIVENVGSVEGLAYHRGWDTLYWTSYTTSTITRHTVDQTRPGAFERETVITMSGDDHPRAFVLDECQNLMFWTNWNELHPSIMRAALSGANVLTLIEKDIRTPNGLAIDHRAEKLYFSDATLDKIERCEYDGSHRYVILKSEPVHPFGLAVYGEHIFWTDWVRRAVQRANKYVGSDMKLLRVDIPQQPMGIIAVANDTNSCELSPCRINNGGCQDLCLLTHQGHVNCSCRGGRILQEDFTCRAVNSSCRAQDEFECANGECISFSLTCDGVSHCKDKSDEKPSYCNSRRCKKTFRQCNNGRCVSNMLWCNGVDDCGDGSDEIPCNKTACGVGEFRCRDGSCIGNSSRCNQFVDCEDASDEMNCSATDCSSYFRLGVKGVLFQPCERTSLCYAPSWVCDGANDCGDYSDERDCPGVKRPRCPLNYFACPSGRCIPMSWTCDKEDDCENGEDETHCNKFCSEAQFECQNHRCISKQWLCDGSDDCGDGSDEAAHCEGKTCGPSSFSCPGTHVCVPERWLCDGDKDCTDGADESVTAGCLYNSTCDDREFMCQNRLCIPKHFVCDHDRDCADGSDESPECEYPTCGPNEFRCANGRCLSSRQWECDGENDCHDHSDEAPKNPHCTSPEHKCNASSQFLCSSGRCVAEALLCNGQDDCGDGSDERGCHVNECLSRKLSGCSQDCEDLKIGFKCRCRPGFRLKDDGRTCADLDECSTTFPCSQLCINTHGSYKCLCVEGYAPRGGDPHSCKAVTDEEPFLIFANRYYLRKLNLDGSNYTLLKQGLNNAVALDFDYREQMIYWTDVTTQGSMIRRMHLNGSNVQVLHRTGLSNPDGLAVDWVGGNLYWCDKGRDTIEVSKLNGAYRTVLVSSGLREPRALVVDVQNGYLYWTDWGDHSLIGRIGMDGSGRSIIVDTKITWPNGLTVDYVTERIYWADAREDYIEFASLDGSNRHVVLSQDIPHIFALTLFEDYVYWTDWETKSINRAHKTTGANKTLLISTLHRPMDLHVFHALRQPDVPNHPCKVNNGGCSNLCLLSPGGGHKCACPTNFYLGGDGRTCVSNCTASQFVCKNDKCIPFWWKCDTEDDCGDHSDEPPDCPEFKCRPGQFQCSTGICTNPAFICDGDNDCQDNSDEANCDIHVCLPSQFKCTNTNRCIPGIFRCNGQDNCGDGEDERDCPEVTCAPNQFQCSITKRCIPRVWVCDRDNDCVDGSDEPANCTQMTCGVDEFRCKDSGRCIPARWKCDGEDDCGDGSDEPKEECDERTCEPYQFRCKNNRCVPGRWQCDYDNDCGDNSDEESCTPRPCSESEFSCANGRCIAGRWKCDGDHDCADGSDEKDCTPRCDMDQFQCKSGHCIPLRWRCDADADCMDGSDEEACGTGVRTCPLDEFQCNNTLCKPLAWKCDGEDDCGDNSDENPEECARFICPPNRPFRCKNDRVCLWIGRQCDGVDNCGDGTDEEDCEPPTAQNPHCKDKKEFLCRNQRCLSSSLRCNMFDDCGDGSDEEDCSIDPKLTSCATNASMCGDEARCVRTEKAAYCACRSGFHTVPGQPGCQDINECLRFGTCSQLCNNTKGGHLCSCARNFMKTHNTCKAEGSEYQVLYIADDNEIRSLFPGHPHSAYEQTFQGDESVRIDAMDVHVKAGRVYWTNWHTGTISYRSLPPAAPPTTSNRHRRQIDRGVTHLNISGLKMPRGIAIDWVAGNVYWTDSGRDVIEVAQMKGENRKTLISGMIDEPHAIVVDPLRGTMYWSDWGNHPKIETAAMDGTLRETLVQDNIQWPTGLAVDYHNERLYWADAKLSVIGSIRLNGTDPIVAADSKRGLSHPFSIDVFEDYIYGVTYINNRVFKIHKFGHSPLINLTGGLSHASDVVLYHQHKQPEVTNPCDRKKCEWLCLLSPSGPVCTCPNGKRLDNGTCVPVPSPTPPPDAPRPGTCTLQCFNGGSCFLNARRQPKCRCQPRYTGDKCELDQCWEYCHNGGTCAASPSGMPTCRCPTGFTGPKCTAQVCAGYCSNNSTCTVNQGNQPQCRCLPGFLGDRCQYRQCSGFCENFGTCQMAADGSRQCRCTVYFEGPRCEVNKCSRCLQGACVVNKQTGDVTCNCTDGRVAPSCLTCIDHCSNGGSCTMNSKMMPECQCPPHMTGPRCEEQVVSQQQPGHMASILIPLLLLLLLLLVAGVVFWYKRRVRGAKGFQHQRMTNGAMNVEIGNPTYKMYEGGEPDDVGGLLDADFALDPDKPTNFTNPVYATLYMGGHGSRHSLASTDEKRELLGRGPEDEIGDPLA

Molecular target: LDL receptor-related protein 1 (LRP1), endogenous mouse (mouse (endogenous in primary brain endothelial cells and brain sections)) (UniProt Q91ZX7)
Assay: co-IP; mouse primary brain endothelial cells co-cultured with astrocytes and pericytes in a transwell format for 3 days; lysed in PLC lysis buffer; anti-LRP1 antibody 90 min on ice, Protein A-Sepharose 4B 30 min at 4 °C; washed twice with HNTG; gradient SDS-PAGE, immunoblot

binding: binds
B1: ankyrin repeat and SAM domain containing 1A (ANKS1A), endogenous mouse (protein, UniProt P59672 1-1150)
chain: MGKEQELLEAARTGHLPAVEKLLSGKRLSSGFGGGGGGSGSGGGSGGGGLGSSSHPLSSLLSMWRGPNVNCVDSTGYTPLHHAALNGHRDVVEVLLRNDALTNVADSKGCYPLHLAAWKGDAQIVRLLIQQGPSHTRVNEQNALEIRELKKYGPFDPYINAKNNDNETALHCAAQYGHTEVVKALLEELTDPTMRNNKFETPLDLAALYGRLEVVKLLLGAHPNLLSCSTRKHTPLHLAARNGHKAVVQVLLDAGMDSNYQTEMGSALHEAALFGKTDVVQILLAAGIDVNIKDNRGLTALDTVRDLPSQKSQQIAALIEDHMTGKRSVKEVDRTSTAQLPLLSNTDAIAPMSQGSMEKTVTELILHFDTHADEEGPYEALYNAVSCHSLDSTASGRSSDRDSMNKEAEATGTRAAGVRPRERPPPPAKPPPDEEEEERVDKKYFPLAASEGLAVRPRIQSSAPQEEEEHPYELLLTAETKKLGTTDGRTEDHRQSGSGRSQDSVEGQDGQVPEQFSGLLHGSSPVCEVGQDPFQLLTAPSQSHPESSQQDACHEASMQLEEPGVQGTEPPQPGVPDQSKRVGLPAGLTALASRTYLDALTHTVPLRPAGAEEEDQSGPRSRAPPTSKPKAELKLSRSLSKSDSDLLTCSPTEDATMGSRSESLSNCSIGKKRLEKSPSFASEWDEIEKIMSSIGEGIDFSQEQQKISGSRTLEQSVGEWLESIGLQQYESKLLLNGFDDVRFLGSNVMEEQDLREIGISDPQHRRKLLQAARSLPKVKALGYDGVSPTSVPSWLDSLGLQDYVHSFLSSGYSSIDTVKNLWELELVNVLKVHLLGHRKRIIASLADRPYEEPPQKPPRFSQLRCQDLISQTSSPLSQNDSCTGRSADLLLPSADTSRRRHDSLPDPGTASRADRFRVQEEPSETKLTLRPPSLAAPYAPVQSWQHQPEKLIFESCGYEANYLGSMLIKDLRGTESTQDACAKMRKSTEHMKKIPTIILSITYKGVKFIDASNKNVIAEHEIRNISCAAQDPEDLCTFAYITKDLQTSHHYCHVFSTVDVNLTYEIILTLGQAFEVAYQLALQAQKSRTMAASAASMIETKSSKPVPKPRVGMRKSALEPPDSDQEAPSHASVSWIVDPKPDSKRSLSTN
